Hit rate of the full screen: of about 320,000 compounds, about 2,100 (0.66%) were called active. Inconclusive means that the source gave no clear call. Such entries were picked first, then a sample of the others. The call rests on the fitted dose curve; in most records, active means well fitted inhibition curve with a large enough effect in the signal ratio, with a control signal flat (not every such curve was filed as active); inconclusive means small, poorly fitted or top-dose-only effect, or effect the other way, or a change in a side signal; inactive means flat fitted curve, though single readings scatter; the % refers to the signal ratio. Potencies beside an inconclusive call are fits to weak or partial responses and may not hold up.
Assay: qHTS Assay for Lipid Storage Modulators in Drosophila S3 Cells
Details: BODIPY lipid droplet fluorescence, 18-24 h, cells fed with added oleic acid; lipid storage change, negative = inhibition: at 46.1 µM (top of the series) unless noted
Method in brief: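 Drosophila S3 cells loaded with oleic acid (400 uM, as added) and compounds at several concentrations; lipid droplets imaged by 488-nm laser-scanning cytometry, 500–530 nm intensity and object ratio to cell channel. Percent activity normalized to 20 uM Triacsin C.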
On the % scale 0 is the no-effect control and ±100 the full control effect; potency means the concentration at half of the fitted maximal effect.

Row | SMILES | lipid storage change, negative = inhibition | Potency | outcome
1 | O=C(Nc1ccc(Cl)cn1)c1ccccc1F | inconclusive: 68.6% |  | 
2 | COc1ccc(N2C(=O)CC(N3CCN(c4ccc(S(C)(=O)=O)cc4)CC3)C2=O)cc1 (centres undefined) | inconclusive: -0.0563% |  | 
3 | Cc1ccc(C)c(N=Cc2ccc(-c3ccc([N+](=O)[O-])cc3)o2)c1 | inconclusive: -15.4% |  | 
4 | COc1cc(Cl)ccc1OCc1cc(C(=O)N[C@H]2CCCCNC2=O)no1 |  | inconclusive: 7.31 µM [activator, partial curve] | 
5 | Cc1cc(C)n(-c2ccc(S(=O)(=O)N3CCCC3)cc2[N+](=O)[O-])n1 | inconclusive: 10.7% |  | 
6 | CCn1nc(C)c(/C=N/NC(=O)Cn2nnnc2N)c1C | inconclusive: 4.21% |  | 
7 | Cc1ccc(CN(C)Cc2cc(=O)oc3cc(C)c(Cl)cc23)cc1 | inconclusive: 18.2% |  | 
8 | O=C(Nc1ccccc1)c1ccc2ccccc2n1 | inconclusive: 11.6% |  | 
9 | Cc1cc(S(=O)(=O)NCC(C)C)ccc1OCC(=O)NCc1ccco1 | inactive: 5.71% |  | 
10 | COc1ccc(-n2c(N)c(C(=O)NCc3ccco3)c3nc4ccccc4nc32)cc1 | inconclusive: -7.26% |  | 
11 | CN(C)c1ccc(N=Cc2nc(-c3ccccc3)oc2O)cc1 | inconclusive: -93.7% |  | 
12 | Nc1nc(F)nc2c1ncn2[C@@H]1O[C@H](CO)[C@@H](O)[C@@H]1O | inconclusive: -10.6% |  | 
13 | CCC(C(=O)OCC(=O)Nc1ccccc1-c1ccccc1)c1ccccc1 (centres undefined) | inconclusive: 11% |  | 
14 | CCc1ccc(OCC(=O)NNC(=O)CNC(=O)c2ccc(Br)o2)cc1 |  | inconclusive: 18.4 µM [activator, partial curve, poor fit] | 
15 | COc1ccccc1OCC(=O)Nc1ccc(S(=O)(=O)Nc2nccs2)cc1 | inconclusive: 26.5% |  | 
16 | O=C(NCc1ccncc1)c1ccc(NS(=O)(=O)c2cccc([N+](=O)[O-])c2)cc1 | inconclusive: 5.74% |  | 
17 | CC(C)C[C@H](NC(=O)OC(C)(C)C)c1n[nH]c(=S)n1N | inconclusive: -17.2% |  | 
18 | CCOP(=O)(OCC)C(NC(=O)Nc1ccc(C)c(Cl)c1)c1ccccc1 (centres undefined) | inconclusive: 30.6% |  | 
19 | S=c1[nH]nc(-c2ccn[nH]2)n1-c1ccccc1Cl | inconclusive: 0.669% |  | 
20 | CCCCn1c(SCc2nc3ccccc3s2)nc2cc(S(N)(=O)=O)ccc21 |  | inconclusive: 20.6 µM [rising, partial curve] | 
21 | Cn1c(SCC(=O)c2ccc(F)cc2)nnc1-c1ccccn1 | inconclusive: 6.89% |  | 
22 | Cc1ccc(C)c(S(=O)(=O)N2CCN(C(=O)CCNS(=O)(=O)c3ccc(C)c(C)c3)CC2)c1 |  | inconclusive: 29.1 µM [falling, single point] | 
23 | O=C(C1CCCO1)N(c1cccc(Cl)c1)C1C=CS(=O)(=O)C1 (centres undefined) | inconclusive: -41.1% |  | 
24 | CCNC(=O)COc1ccc(F)cc1C(=O)c1cnn(-c2ccccc2)c1 | inconclusive: -49% |  | 
25 | CC(C)NC(=O)C1CCN(C(=O)c2cc3sccc3n2Cc2ccc(F)cc2)CC1 | inconclusive: -19.3% |  | 

10 entries from above, set out differently:
Row,SMILES,"lipid storage change, negative = inhibition",Potency,outcome
3,Cc1ccc(C)c(N=Cc2ccc(-c3ccc([N+](=O)[O-])cc3)o2)c1,inconclusive: -15.4%,,
6,CCn1nc(C)c(/C=N/NC(=O)Cn2nnnc2N)c1C,inconclusive: 4.21%,,
9,Cc1cc(S(=O)(=O)NCC(C)C)ccc1OCC(=O)NCc1ccco1,inactive: 5.71%,,
10,COc1ccc(-n2c(N)c(C(=O)NCc3ccco3)c3nc4ccccc4nc32)cc1,inconclusive: -7.26%,,
12,Nc1nc(F)nc2c1ncn2[C@@H]1O[C@H](CO)[C@@H](O)[C@@H]1O,inconclusive: -10.6%,,
17,CC(C)C[C@H](NC(=O)OC(C)(C)C)c1n[nH]c(=S)n1N,inconclusive: -17.2%,,
18,CCOP(=O)(OCC)C(NC(=O)Nc1ccc(C)c(Cl)c1)c1ccccc1 (centres undefined),inconclusive: 30.6%,,
20,CCCCn1c(SCc2nc3ccccc3s2)nc2cc(S(N)(=O)=O)ccc21,,"inconclusive: 20.6 µM [rising, partial curve]",
23,O=C(C1CCCO1)N(c1cccc(Cl)c1)C1C=CS(=O)(=O)C1 (centres undefined),inconclusive: -41.1%,,
24,CCNC(=O)COc1ccc(F)cc1C(=O)c1cnn(-c2ccccc2)c1,inconclusive: -49%,,

The list goes on:

Row | SMILES | lipid storage change, negative = inhibition | Potency | outcome
26 | COc1ccc(C2c3c(ncn(CCCO)c3=N)Oc3ccc4ccccc4c32)cc1 (centres undefined) | inconclusive: -12.5% |  | 
27 | COc1ccc(C2CC(c3ccc4ccccc4c3)=NN2C(=O)CSc2ncccn2)cc1 (centres undefined) | inconclusive: -16.3% |  | 
28 | Cn1cccc1/C=N\NC(=O)c1cncc(Br)c1 | inconclusive: 13.9% |  | 
29 | COc1ccccc1CNS(=O)(=O)c1ccc2c(c1)CC(C)N2C(=O)C1CCC1 (centres undefined) |  | active: 5.17 µM | 
30 | O=C(Nc1ccc(-n2cc(Cl)cn2)cc1)c1ccncc1 | inactive: -2.29% |  | 
31 | Cc1c(-c2ccccc2)nc2ccccc2c1C(=O)OCC(=O)Nc1ncc(C(F)(F)F)cc1Cl |  | inconclusive: 0.0058 µM [activator, full curve, poor fit] | 
32 | Cc1c(C(=O)NCCCN2CCCC2=O)oc2ccc(S(=O)(=O)N3CCOCC3)cc12 |  |  | inactive [at 46.1 µM]
33 | C=CCNC(=O)C1CCN(c2ccc(S(=O)(=O)N3CCOCC3)cc2Cl)CC1 | inconclusive: -20.8% |  | 
34 | CCn1c(SCC(=O)Nc2ccc(OC)c(OC)c2)nc2c(c1=O)SCC2 | inconclusive: -22.6% |  | 
35 | COc1ccc(/C=C2\SC(=S)N(CC(=O)OCC(=O)Nc3cc(Cl)cc(Cl)c3)C2=O)cc1 | inconclusive: -16.3% |  | 
36 | CCCCC(=O)Nc1ccc(NC(=O)C(C)C)cn1 | inconclusive: 50.9% |  | 
37 | CCN(C(=O)COC(=O)CNC(=O)c1ccc2ccccc2c1)C1CCS(=O)(=O)C1 (centres undefined) | inconclusive: -33.2% |  | 
38 | COc1ccccc1NC(=O)c1cc(S(=O)(=O)N2CCOCC2)ccc1Cl |  | inconclusive: 2.31 µM [activator, single point] | 
39 | COc1cc(OC)c(OC)cc1CN1CCN(c2ccc(F)cc2)CC1 |  | inconclusive: 0.0052 µM [falling, full curve, poor fit] | 
40 | O=C(CN1C(=O)c2ccccc2S1(=O)=O)Nc1ncc([N+](=O)[O-])s1 | inconclusive: 8.04% |  | 
41 | Cc1ccc(CN(Cc2cc3cc(C)ccc3[nH]c2=O)C(=O)N2CCOCC2)cc1 |  | inconclusive: 25.9 µM [activator, single point] | 
42 | CCOc1ccc(C(=O)OCC(=O)N(Cc2ccccc2)Cc2ccccc2)cc1OC | inconclusive: -52.4% |  | 
43 | CCC(=O)C1CCCN(C(=O)CCc2nnc(-c3ccc4c(c3)OCO4)o2)C1 (centres undefined) |  | inconclusive: 0.517 µM [activator, partial curve, poor fit] | 
44 | Cc1ccc(NC(=O)Cn2c(O)c(N=NS(=O)(=O)c3ccc(C)cc3)c3ccccc32)cc1 | inconclusive: 10.8% |  | 
45 | Cn1c(SCC(=O)N2CCN(c3ccccc3)CC2)nnc1-c1ccco1 | inconclusive: 56.7% |  | 
46 | O=C(O)CCNC(=O)/C(=C/C=C/c1ccccc1)NC(=O)c1ccccc1 | inconclusive: -2.34% |  | 
47 | CCCOc1ccccc1C(=O)NCCCC(=O)O |  | inconclusive: 2.06 µM [falling, partial curve] | 
48 | COCCN(C(=O)COC(=O)c1cc(C)n(-c2ccccc2)c1C)c1c(N)n(Cc2ccccc2)c(=O)[nH]c1=O | inconclusive: 29.7% |  | 
49 | COC(=O)Cc1c(C(=O)OC)nnn1-c1cccc(C(F)(F)F)c1 |  | inconclusive: 29.1 µM [activator, single point] | 
